Experimental data as given in US20080090749A1 (priority 2005, published 2008).
“And” between values parts separate entries of the source, which are not always exact repeats. Equal values may be shown once. Where no unit stands, none is given here, and values compare only within one read-out.

Columns and labels:
Body weight, Example 2 = type: in vivo, Wistar rats; settings: group mean, 8 rats; 1.5 g per kg oral
Body weight, Example 3 = type: in vivo, Wistar rats

Compound: Cl.N[C@@H](Cc1c[nH]cn1)C(=O)O [Histidine, L-histidine hydrochloride]
- Body weight, Mean (Body weight, Example 2): 246.7
- Body weight, Mean (Body weight, Example 3; group mean, 8 rats, 1.5 g per kg oral): 257.8
- Body weight (Body weight, Example 3; individual rats, L-histidine hydrochloride 1.5 g per kg oral, hydrochloride): 246.7 and 242.1 and 246.8 and 250 and 252.7 and 253.9 and 257.9 and 261.5
